This is an account of results in publication PMC7696408.

These are yes or no findings as the source states them, for the method shown. In cells and extracts the contact can be indirect. These calls come from enrichment with a bait or labelling near it, and not all partners need be listed.

This test deals with FlagBirA*-HRAS (human) (UniProt P01112). The experiment in a line: proximity labelling; BioID: FlagBirA*-RAS bait in Flp-In T-REx 293 cells, 1 µg/mL tetracycline and 50 µM biotin for 24 h; modified RIPA lysis, Streptavidin Sepharose capture, trypsin, LC-MS/MS; hits at SAINT score ≥ 0.75; labelling radius ~10 nm.

B1: GIPC1 (protein, UniProt O14908 1-333)
chain: MPLGLGRRKKAPPLVENEEAEPGRGGLGVGEPGPLGGGGSGGPQMGLPPPPPALRPRLVFHTQLAHGSPTGRIEGFTNVKELYGKIAEAFRLPTAEVMFCTLNTHKVDMDKLLGGQIGLEDFIFAHVKGQRKEVEVFKSEDALGLTITDNGAGYAFIKRIKEGSVIDHIHLISVGDMIEAINGQSLLGCRHYEVARLLKELPRGRTFTLKLTEPRKAFDMISQRSAGGRPGSGPQLGTGRGTLRLRSRGPATVEDLPSAFEEKAIEKVDDLLESYMGIRDTELAATMVELGKDKRNPDELAEALDERLGDFAFPDEFVFDVWGAIGDAKVGRY
Regarding B1, the binding entry is “binds”.

B2: SRP9 (protein, UniProt P49458 1-86)
chain: MPQYQTWEEFSRAAEKLYLADPMKARVVLKYRHSDGNLCVKVTDDLVCLVYKTDQAQDVKKIEKFHSQLMRLMVAKEARNVTMETE
B2: the binding result was “binds”.

B3: STX3 (protein, UniProt Q13277 1-289)
chain: MKDRLEQLKAKQLTQDDDTDAVEIAIDNTAFMDEFFSEIEETRLNIDKISEHVEEAKKLYSIILSAPIPEPKTKDDLEQLTTEIKKRANNVRNKLKSMEKHIEEDEVRSSADLRIRKSQHSVLSRKFVEVMTKYNEAQVDFRERSKGRIQRQLEITGKKTTDEELEEMLESGNPAIFTSGIIDSQISKQALSEIEGRHKDIVRLESSIKELHDMFMDIAMLVENQGEMLDNIELNVMHTVDHVEKARDETKKAVKYQSQARKKLIIIIVLVVVLLGILALIIGLSVGLN
For B3, the binding entry is “binds”.

B4: SCAMP1 (protein, UniProt O15126 1-338)
chain: MSDFDSNPFADPDLNNPFKDPSVTQVTRNVPPGLDEYNPFSDSRTPPPGGVKMPNVPNTQPAIMKPTEEHPAYTQIAKEHALAQAELLKRQEELERKAAELDRREREMQNLSQHGRKNNWPPLPSNFPVGPCFYQDFSVDIPVEFQKTVKLMYYLWMFHAVTLFLNIFGCLAWFCVDSARAVDFGLSILWFLLFTPCSFVCWYRPLYGAFRSDSSFRFFVFFFVYICQFAVHVLQAAGFHNWGNCGWISSLTGLNQNIPVGIMMIIIAALFTASAVISLVMFKKVHGLYRTTGASFEKAQQEFATGVMSNKTVQTAAANAASTAASSAAQNAFKGNQI
Consider B4, for which the binding entry is listed as “binds”.

B5: STX12 (protein, UniProt Q86Y82 1-276)
chain: MSYGPLDMYRNPGPSGPQLRDFSSIIQTCSGNIQRISQATAQIKNLMSQLGTKQDSSKLQENLQQLQHSTNQLAKETNELLKELGSLPLPLSTSEQRQQRLQKERLMNDFSAALNNFQAVQRRVSEKEKESIARARAGSRLSAEERQREEQLVSFDSHEEWNQMQSQEDEVAITEQDLELIKERETAIRQLEADILDVNQIFKDLAMMIHDQGDLIDSIEANVESSEVHVERATEQLQRAAYYQKKSRKKMCILVLVLSVIILILGLIIWLVYKTK
As for B5, the binding result was “binds”.

B6: RAB23 (protein, UniProt Q9ULC3 1-237)
chain: MLEEDMEVAIKMVVVGNGAVGKSSMIQRYCKGIFTKDYKKTIGVDFLERQIQVNDEDVRLMLWDTAGQEEFDAITKAYYRGAQACVLVFSTTDRESFEAVSSWREKVVAEVGDIPTVLVQNKIDLLDDSCIKNEEAEALAKRLKLRFYRTSVKEDLNVNEVFKYLAEKYLQKLKQQIAEDPELTHSSSNKIGVFNTSGGSHSGQNSGTLNGGDVINLRPNKQRTKKNRNPFSSCSIP
As to B6, the binding entry is “binds”.

B7: NAPA (protein, UniProt P54920 1-295)
chain: MDNSGKEAEAMALLAEAERKVKNSQSFFSGLFGGSSKIEEACEIYARAANMFKMAKNWSAAGNAFCQAAQLHLQLQSKHDAATCFVDAGNAFKKADPQEAINCLMRAIEIYTDMGRFTIAAKHHISIAEIYETELVDIEKAIAHYEQSADYYKGEESNSSANKCLLKVAGYAALLEQYQKAIDIYEQVGTNAMDSPLLKYSAKDYFFKAALCHFCIDMLNAKLAVQKYEELFPAFSDSRECKLMKKLLEAHEEQNVDSYTESVKEYDSISRLDQWLTTMLLRIKKTIQGDEEDLR
As for B7, the binding entry is on record as “binds”.

B8: TBC1D10A (protein, UniProt Q9BXI6 1-508)
chain: MAKSNGENGPRAPAAGESLSGTRESLAQGPDAATTDELSSLGSDSEANGFAERRIDKFGFIVGSQGAEGALEEVPLEVLRQRESKWLDMLNNWDKWMAKKHKKIRLRCQKGIPPSLRGRAWQYLSGGKVKLQQNPGKFDELDMSPGDPKWLDVIERDLHRQFPFHEMFVSRGGHGQQDLFRVLKAYTLYRPEEGYCQAQAPIAAVLLMHMPAEQAFWCLVQICEKYLPGYYSEKLEAIQLDGEILFSLLQKVSPVAHKHLSRQKIDPLLYMTEWFMCAFSRTLPWSSVLRVWDMFFCEGVKIIFRVGLVLLKHALGSPEKVKACQGQYETIERLRSLSPKIMQEAFLVQEVVELPVTERQIEREHLIQLRRWQETRGELQCRSPPRLHGAKAILDAEPGPRPALQPSPSIRLPLDAPLPGSKAKPKPPKQAQKEQRKQMKGRGQLEKPPAPNQAMVVAAAGDACPPQHVPPKDSAPKDSAPQDLAPQVSAHHRSQESLTSQESEDTYL
For B8, the binding entry was “binds”.

B9: S100A11 (protein, UniProt P31949 1-105)
chain: MAKISSPTETERCIESLIAVFQKYAGKDGYNYTLSKTEFLSFMNTELAAFTKNQKDPGVLDRMMKKLDTNSDGQLDFSEFLNLIGGLAMACHDSFLKAVPSQKRT
In the case of B9, the binding entry is reported as “binds”.

B10: GDI2 (protein, UniProt P50395 1-445)
chain: MNEEYDVIVLGTGLTECILSGIMSVNGKKVLHMDRNPYYGGESASITPLEDLYKRFKIPGSPPESMGRGRDWNVDLIPKFLMANGQLVKMLLYTEVTRYLDFKVTEGSFVYKGGKIYKVPSTEAEALASSLMGLFEKRRFRKFLVYVANFDEKDPRTFEGIDPKKTTMRDVYKKFDLGQDVIDFTGHALALYRTDDYLDQPCYETINRIKLYSESLARYGKSPYLYPLYGLGELPQGFARLSAIYGGTYMLNKPIEEIIVQNGKVIGVKSEGEIARCKQLICDPSYVKDRVEKVGQVIRVICILSHPIKNTNDANSCQIIIPQNQVNRKSDIYVCMISFAHNVAAQGKYIAIVSTTVETKEPEKEIRPALELLEPIEQKFVSISDLLVPKDLGTESQIFISRTYDATTHFETTCDDIKNIYKRMTGSEFDFEEMKRKKNDIYGED
Take B10: the binding result is recorded as “binds”.

B11: RAB12 (protein, UniProt Q6IQ22 1-340)
chain: MLLPLLRSSCFPSSSPGGGGGSGGGGGGGDPGAESRPAAQLQRGAHGPPGPLQRAEAEPGADPPRAAEAEGAPGPGARSRGAGGGGRRAEREPHACMDPGAALQRRAGGGGGLGAGSPALSGGQGRRRKQPPRPADFKLQVIIIGSRGVGKTSLMERFTDDTFCEACKSTVGVDFKIKTVELRGKKIRLQIWDTAGQERFNSITSAYYRSAKGIILVYDITKKETFDDLPKWMKMIDKYASEDAELLLVGNKLDCETDREITRQQGEKFAQQITGMRFCEASAKDNFNVDEIFLKLVDDILKKMPLDILRNELSNSILSLQPEPEIPPELPPPRPHVRCC
For the molecule B11, the binding entry is given as “binds”.

B12: TIMM13 (protein, UniProt Q9Y5L4 1-95)
chain: MEGGFGSDFGGSGSGKLDPGLIMEQVKVQIAVANAQELLQRMTDKCFRKCIGKPGGSLDNSEQKCIAMCMDRYMDAWNTVSRAYNSRLQRERANM
B12: the binding result is “binds”.

B13: NOP58 (protein, UniProt Q9Y2X3 1-529)
chain: MLVLFETSVGYAIFKVLNEKKLQEVDSLWKEFETPEKANKIVKLKHFEKFQDTAEALAAFTALMEGKINKQLKKVLKKIVKEAHEPLAVADAKLGGVIKEKLNLSCIHSPVVNELMRGIRSQMDGLIPGVEPREMAAMCLGLAHSLSRYRLKFSADKVDTMIVQAISLLDDLDKELNNYIMRCREWYGWHFPELGKIISDNLTYCKCLQKVGDRKNYASAKLSELLPEEVEAEVKAAAEISMGTEVSEEDICNILHLCTQVIEISEYRTQLYEYLQNRMMAIAPNVTVMVGELVGARLIAHAGSLLNLAKHAASTVQILGAEKALFRALKSRRDTPKYGLIYHASLVGQTSPKHKGKISRMLAAKTVLAIRYDAFGEDSSSAMGVENRAKLEARLRTLEDRGIRKISGTGKALAKTEKYEHKSEVKTYDPSGDSTLPTCSKKRKIEQVDKEDEITEKKAKKAKIKVKVEEEEEEKVAEEEETSVKKKKKRGKKKHIKEEPLSEEEPCTSTAIASPEKKKKKKKKRENED
Turning to B13, the binding result is given as “binds”.

B14: STX7 (protein, UniProt O15400 1-261)
chain: MSYTPGVGGDPAQLAQRISSNIQKITQCSVEIQRTLNQLGTPQDSPELRQQLQQKQQYTNQLAKETDKYIKEFGSLPTTPSEQRQRKIQKDRLVAEFTTSLTNFQKVQRQAAEREKEFVARVRASSRVSGSFPEDSSKERNLVSWESQTQPQVQVQDEEITEDDLRLIHERESSIRQLEADIMDINEIFKDLGMMIHEQGDVIDSIEANVENAEVHVQQANQQLSRAADYQRKSRKTLCIIILILVIGVAIISLIIWGLNH
Turning to B14, the binding entry is “binds”.

B15: C14orf133 (protein, UniProt Q9H9C1 1-493)
chain: MNRTKGDEEEYWNSSKFKAFTFDDEDDELSQLKESKRAVNSLRDFVDDDDDDDLERVSWSGEPVGSISWSIRETAGNSGSTHEGREQLKSRNSFSSYAQLPKPTSTYSLSSFFRGRTRPGSFQSLSDALSDTPAKSYAPELGRPKGEYRDYSNDWSPSDTVRRLRKGKVCSLERFRSLQDKLQLLEEAVSMHDGNVITAVLIFLKRTLSKEILFRELEVRQVALRHLIHFLKEIGDQKLLLDLFRFLDRTEELALSHYREHLNIQDPDKRKEFLKTCVGLPFSAEDSAHIQDHYTLLERQIIIEANDRHLESAGQTEIFRKHPRKASILNMPLVTTLFYSCFYHYTEAEGTFSSPVNLKKTFKIPDKQYVLTALAARAKLRAWNDVDALFTTKNWLGYTKKRAPIGFHRVVEILHKNNAPVQILQEYVNLVEDVDTKLNLATKFKCHDVVIDTYRDLKDRQQLLAYRSKVDKGSAEEEKIDALLSSSQIRWKN
As to B15, the binding entry was “binds”.

B16: STX6 (protein, UniProt O43752 1-255)
chain: MSMEDPFFVVKGEVQKAVNTAQGLFQRWTELLQDPSTATREEIDWTTNELRNNLRSIEWDLEDLDETISIVEANPRKFNLDATELSIRKAFITSTRQVVRDMKDQMSTSSVQALAERKNRQALLGDSGSQNWSTGTTDKYGRLDRELQRANSHFIEEQQAQQQLIVEQQDEQLELVSGSIGVLKNMSQRIGGELEEQAVMLEDFSHELESTQSRLDNVMKKLAKVSHMTSDRRQWCAIAILFAVLLVVLILFLVL
For the molecule B16, the binding result is given as “binds”.

B17: CNN2 (protein, UniProt Q99439 1-309)
chain: MSSTQFNKGPSYGLSAEVKNRLLSKYDPQKEAELRTWIEGLTGLSIGPDFQKGLKDGTILCTLMNKLQPGSVPKINRSMQNWHQLENLSNFIKAMVSYGMNPVDLFEANDLFESGNMTQVQVSLLALAGKAKTKGLQSGVDIGVKYSEKQERNFDDATMKAGQCVIGLQMGTNKCASQSGMTAYGTRRHLYDPKNHILPPMDHSTISLQMGTNKCASQVGMTAPGTRRHIYDTKLGTDKCDNSSMSLQMGYTQGANQSGQVFGLGRQIYDPKYCPQGTVADGAPSGTGDCPDPGEVPEYPPYYQEEAGY
Regarding B17, the binding entry is listed as “binds”.
